{"sequences": {"note": "Sequences of proteins named here, by UniProt entry; tags and fusion partners are left off. A change or cut given only in a name is not applied to a line headed by its entry.", "UniProt P49773": "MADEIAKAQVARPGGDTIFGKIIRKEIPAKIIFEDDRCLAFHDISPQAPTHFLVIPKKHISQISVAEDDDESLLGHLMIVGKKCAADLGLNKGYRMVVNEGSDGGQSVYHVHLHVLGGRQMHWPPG", "UniProt Q15651": "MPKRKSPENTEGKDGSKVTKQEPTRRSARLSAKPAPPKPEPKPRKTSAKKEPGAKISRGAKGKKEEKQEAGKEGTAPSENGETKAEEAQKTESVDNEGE"}, "source": "paper PMC5996148", "experiment_in_all_cases": "protein microarray (ProtoArray v5.0), streptavidin-Alexa Fluor 647", "conditions_in_all_cases": "3'-biotin; 20 mM Tris (pH 7.5), 5 mM MgCl2, 100 mM KCl, 0.1% Tween-20, A/T-rich and random oligonucleotide blockers; temperature not stated; high values mean tight binding", "key": {"HGS (human)": {"tested_on": "HGS (human)"}, "HINT1": {"target": "HINT1 (UniProt P49773)"}, "HIP1 (human)": {"tested_on": "HIP1 (human)"}, "HIP2 (human)": {"tested_on": "HIP2 (human)"}, "HK1 (human)": {"tested_on": "HK1 (human)"}, "HKDC1 (human)": {"tested_on": "HKDC1 (human)"}, "[1]": {"tested_on": "HLA class I histocompatibility antigen, Cw-7 alpha chain (human)"}, "HMG20B (human)": {"tested_on": "HMG20B (human)"}, "HMGB2": {"target": "T1, HMGB2 (UniProt P26583)", "T1 sequence": "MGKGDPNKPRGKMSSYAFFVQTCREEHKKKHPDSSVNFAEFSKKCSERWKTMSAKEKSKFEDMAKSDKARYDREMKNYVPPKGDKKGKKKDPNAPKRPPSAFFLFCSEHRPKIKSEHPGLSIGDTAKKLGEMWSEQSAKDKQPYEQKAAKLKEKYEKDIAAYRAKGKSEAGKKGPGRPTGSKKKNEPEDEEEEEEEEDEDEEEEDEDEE"}, "HMGN3": {"target": "HMGN3 (UniProt Q15651)"}}, "note": "This is one part of the list. For some of these results: The source does not settle which construct or isoform was used."}
{"sequence": "GGTGACAGGGGTATGGGGAGGGG [G4-2 biotinylated (Ct1)]", "values": [{"measurement": "binding signal", "setting": "HGS (human)", "result": -0.382, "unit": "z-score"}, {"measurement": "binding signal", "setting": "HINT1", "result": -0.389, "unit": "z-score"}, {"measurement": "binding signal", "setting": "HIP1 (human)", "result": -0.389, "unit": "z-score"}, {"measurement": "binding signal", "setting": "HIP2 (human)", "result": -0.378, "unit": "z-score"}, {"measurement": "binding signal", "setting": "HK1 (human)", "result": -0.387, "unit": "z-score"}, {"measurement": "binding signal", "setting": "HKDC1 (human)", "result": -0.381, "unit": "z-score"}, {"measurement": "binding signal", "setting": "[1]", "result": -0.381, "unit": "z-score"}, {"measurement": "binding signal", "setting": "HMG20B (human)", "result": -0.371, "unit": "z-score"}, {"measurement": "binding signal", "setting": "HMGB2", "result": 6.19, "unit": "z-score"}, {"measurement": "binding signal", "setting": "HMGN3", "result": 4.29, "unit": "z-score"}]}
